Results taken from patent US7718647B2, “Substituted azepine derivatives as serotonin receptor modulators” (Athersys, Inc., priority 2004, dated 2010).
Some results were stated once for a whole list of compounds, not compound by compound.

Molecular target: T1, human 5HT2c receptor (Homo sapiens, UniProt P28335, I156V/I160V, form not given)
T1 sequence (P28335 1-458 I156V/N158S/I160V): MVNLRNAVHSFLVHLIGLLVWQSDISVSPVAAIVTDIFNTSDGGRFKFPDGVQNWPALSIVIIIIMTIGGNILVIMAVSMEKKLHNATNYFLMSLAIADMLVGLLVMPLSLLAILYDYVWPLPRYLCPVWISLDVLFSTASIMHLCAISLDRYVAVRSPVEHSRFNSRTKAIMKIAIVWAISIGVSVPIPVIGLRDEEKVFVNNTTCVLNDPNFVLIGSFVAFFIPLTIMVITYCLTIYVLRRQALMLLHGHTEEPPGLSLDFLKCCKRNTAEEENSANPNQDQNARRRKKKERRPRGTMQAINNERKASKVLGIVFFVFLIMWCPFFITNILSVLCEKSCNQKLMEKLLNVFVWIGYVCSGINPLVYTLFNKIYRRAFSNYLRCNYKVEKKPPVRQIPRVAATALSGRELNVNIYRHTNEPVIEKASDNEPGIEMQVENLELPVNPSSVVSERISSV
Assay: Calcium mobilization (FLIPR) 5HT2c receptor agonist assay in HEK 293 EBNA cells
Format: cell-based
Settings: agonist-stimulated calcium release, HEK 293 EBNA cells expressing human 5HT2c receptor, read-out: 5-HT2c EC50 (hVSV)

Question: With `CC1CNCCc2sc(Br)cc21` (single isomer, unassigned) [23, Enantiomer 1] as the compound, how does the EC50 read?
Answer: < 100 nM
